{"source": "the supplement of paper PMC12889115", "test_system": "Salmonella enterica serovar Typhimurium SL1344", "assay": "bacterial growth OD600 after 18 h with compound and polymyxin B; higher = more bacterial growth (less inhibition)", "conditions": "50 µM, Mueller-Hinton broth", "note": "The other results are listed elsewhere or left out. These are raw signals, not scaled to a control.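 Primary screen: polymyxin B was added at a level permeabilizing Salmonella outer membranes while sparing inner membranes. DMSO wells, both with and without polymyxin B, established maximum growth. Plate-to-plate variation meant each plate was ranked on its own, and the lowest-OD600 compounds were selected as hits.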", "data": [{"smiles": "COc1cccc(C(C)N(C)C(=O)c2cn(Cc3ccccc3F)nn2)c1", "note": "(stereo not given)", "values": [{"measurement": "bacterial growth OD600", "setting": "polymyxin B 1 µg/mL", "result": 0.774}]}, {"smiles": "Cc1ccc(CCC(=O)N2CCOc3c(cc(-c4cccnc4)cc3OCCc3cccs3)C2)cc1", "values": [{"measurement": "bacterial growth OD600", "setting": "polymyxin B 0.75 µg/mL", "result": 0.72}]}, {"smiles": "COC(=O)C1CCCCN1Cc1c(C(=O)N(C)CCc2ccccc2)nc2sccn12", "note": "(stereo not given)", "values": [{"measurement": "bacterial growth OD600", "setting": "polymyxin B 1 µg/mL", "result": 0.873}]}, {"smiles": "CN(Cc1n[nH]c2c1CCCC2)C(=O)Cn1nnnc1CN1CCCCCC1", "values": [{"measurement": "bacterial growth OD600", "setting": "polymyxin B 0.75 µg/mL", "result": 0.826}]}, {"smiles": "COc1ccc(CN2CCOc3ccc(CN4CCN(Cc5ccccn5)CC4)cc3C2)cc1C", "values": [{"measurement": "bacterial growth OD600", "setting": "polymyxin B 0.75 µg/mL", "result": 0.791}]}, {"smiles": "CCCCN(C)C(=O)c1nc2ccccn2c1CN1CCN(c2cccc(Cl)c2)CC1", "values": [{"measurement": "bacterial growth OD600", "setting": "polymyxin B 1 µg/mL", "result": 0.001}]}, {"smiles": "CCC(CC)C(=O)N1CCCC1C(=O)Nc1ccccc1Oc1cccnc1", "note": "(stereo not given)", "values": [{"measurement": "bacterial growth OD600", "setting": "polymyxin B 1 µg/mL", "result": 1.16}]}, {"smiles": "CCOC(=O)C1(CCc2ccccc2)CCN(C(=O)C2=C(C)OCCO2)CC1", "values": [{"measurement": "bacterial growth OD600", "setting": "polymyxin B 1 µg/mL", "result": 0.02}]}, {"smiles": "CCC(CC)C(=O)N(Cc1cc2cc3c(cc2nc1N1CCOCC1)CCC3)CC1CCCO1", "note": "(stereo not given)", "values": [{"measurement": "bacterial growth OD600", "setting": "polymyxin B 0.75 µg/mL", "result": 0.824}]}, {"smiles": "O=C(NCc1ccc(F)cc1)C1CCCN(C2CCN(C(=O)C3CC3)CC2)C1", "note": "(stereo not given)", "values": [{"measurement": "bacterial growth OD600", "setting": "polymyxin B 0.75 µg/mL", "result": 0.712}]}, {"smiles": "Cc1cc(CN(C)C(=O)c2ccccc2OC2CCN(Cc3ccccn3)CC2)on1", "values": [{"measurement": "bacterial growth OD600", "setting": "polymyxin B 1 µg/mL", "result": 0.992}]}, {"smiles": "O=C(NCc1ccc2c(c1)OCO2)c1ccc(N2CCC(NCCCOc3cccnc3)CC2)cc1", "values": [{"measurement": "bacterial growth OD600", "setting": "polymyxin B 0.75 µg/mL", "result": 0.776}]}, {"smiles": "COCC(C)NC(=O)c1coc(COc2cccc(F)c2)n1", "note": "(stereo not given)", "values": [{"measurement": "bacterial growth OD600", "setting": "polymyxin B 1 µg/mL", "result": 0.906}]}, {"smiles": "COc1ccccc1Oc1ncccc1CNC(=O)C1=NNC(=O)CC1", "values": [{"measurement": "bacterial growth OD600", "setting": "polymyxin B 1 µg/mL", "result": 1.07}]}, {"smiles": "Cc1cc(F)ccc1NC(=O)CCC1CCCN(C(=O)Cn2cccn2)C1", "note": "(stereo not given)", "values": [{"measurement": "bacterial growth OD600", "setting": "polymyxin B 1 µg/mL", "result": 0.964}]}, {"smiles": "CCOC(=O)N1CCN(Cc2ccc3c(c2)CN(C(=O)Cn2cnc4ccccc42)CCO3)CC1", "values": [{"measurement": "bacterial growth OD600", "setting": "polymyxin B 0.75 µg/mL", "result": 0.85}]}, {"smiles": "Cc1ccoc1C(=O)N1CCC(CCC(=O)N2CCN(c3ccccc3)CC2)CC1", "values": [{"measurement": "bacterial growth OD600", "setting": "polymyxin B 1 µg/mL", "result": 0.9}]}, {"smiles": "c1ccc(CCCN2CCCC(NCc3ccco3)C2)cc1", "note": "(stereo not given)", "values": [{"measurement": "bacterial growth OD600", "setting": "polymyxin B 1 µg/mL", "result": 0.842}]}, {"smiles": "O=C(c1cccc(Cl)c1)C1CCCN(S(=O)(=O)c2ccc(F)c(F)c2)C1", "note": "(stereo not given)", "values": [{"measurement": "bacterial growth OD600", "setting": "polymyxin B 1 µg/mL", "result": 0.91}]}, {"smiles": "CCN(CCO)Cc1nc(-c2ccccc2)no1", "values": [{"measurement": "bacterial growth OD600", "setting": "polymyxin B 1 µg/mL", "result": 0.91}]}, {"smiles": "CCOC(=O)C1(Cc2ccc(F)cc2F)CCCN(C(=O)c2cc3ccccc3cn2)C1", "note": "(stereo not given)", "values": [{"measurement": "bacterial growth OD600", "setting": "polymyxin B 1 µg/mL", "result": 0.122}]}, {"smiles": "C=C(C)CN(CC)C(=O)C1CCCN(C2CCN(Cc3ccccc3)CC2)C1", "note": "(stereo not given)", "values": [{"measurement": "bacterial growth OD600", "setting": "polymyxin B 0.75 µg/mL", "result": 0.766}]}, {"smiles": "O=C(c1ccccn1)N1CCOC(CCc2ccccc2)C1", "note": "(stereo not given)", "values": [{"measurement": "bacterial growth OD600", "setting": "polymyxin B 0.75 µg/mL", "result": 0.873}]}, {"smiles": "COCc1ccc(C(=O)Nc2ccc(-c3nc(CNC(=O)c4cc(CC(C)C)on4)c(C)o3)cc2)o1", "values": [{"measurement": "bacterial growth OD600", "setting": "polymyxin B 0.75 µg/mL", "result": 0.006}]}, {"smiles": "COc1ccc2cc(C(=O)C3CCCN(Cc4cnn(C)c4)C3)ccc2c1", "note": "(stereo not given)", "values": [{"measurement": "bacterial growth OD600", "setting": "polymyxin B 1 µg/mL", "result": 0.873}]}, {"smiles": "Cc1cccc(-c2cnc(-c3ccncc3)nc2C2CCN(C(=O)c3cc(CC(C)C)on3)CC2)c1", "values": [{"measurement": "bacterial growth OD600", "setting": "polymyxin B 0.75 µg/mL", "result": 0}]}, {"smiles": "CCOC(=O)C1(Cc2cccc(OC)c2)CCCN(Cc2ccc(COC)o2)C1", "note": "(stereo not given)", "values": [{"measurement": "bacterial growth OD600", "setting": "polymyxin B 1 µg/mL", "result": 0.934}]}, {"smiles": "CSCCC(=O)N1CCCC(CCc2ccccc2)C1", "note": "(stereo not given)", "values": [{"measurement": "bacterial growth OD600", "setting": "polymyxin B 0.75 µg/mL", "result": 0.8}]}, {"smiles": "Cc1ccc(CC2(CCC(=O)N(C)Cc3ccc(-n4cccn4)cc3)CCC(=O)N2)cc1", "note": "(stereo not given)", "values": [{"measurement": "bacterial growth OD600", "setting": "polymyxin B 0.75 µg/mL", "result": 0.849}]}, {"smiles": "COc1ccc(C(=O)N2CCC(C(Cc3ccccc3C)N(C)C(=O)Cn3cccn3)CC2)cc1F", "note": "(stereo not given)", "values": [{"measurement": "bacterial growth OD600", "setting": "polymyxin B 0.75 µg/mL", "result": 0.854}]}]}
